Sequences of proteins named here, by UniProt entry; tags and fusion partners are left off. A change or cut given only in a name is not applied to a line headed by its entry.
UniProt F4KH55: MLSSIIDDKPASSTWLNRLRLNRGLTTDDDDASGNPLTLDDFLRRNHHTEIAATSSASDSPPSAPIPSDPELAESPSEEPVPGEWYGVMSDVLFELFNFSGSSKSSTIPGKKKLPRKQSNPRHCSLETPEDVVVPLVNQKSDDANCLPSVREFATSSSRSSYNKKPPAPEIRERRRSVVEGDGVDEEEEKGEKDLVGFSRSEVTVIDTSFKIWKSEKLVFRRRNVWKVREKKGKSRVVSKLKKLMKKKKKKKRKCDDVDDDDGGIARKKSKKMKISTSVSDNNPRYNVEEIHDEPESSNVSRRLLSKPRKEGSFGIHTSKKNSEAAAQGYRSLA

According to PMC7282668:

What was measured:
[1] = biological target: GS^rhino-ALP2 (35S::GS^rhino-ALP2) (Arabidopsis thaliana); experiment: affinity purification with mass spectrometry; two-step tandem affinity purification of GS^rhino-ALP2 from dark grown PSB-D suspension culture cells; non-transgenic cells as control; three replicates
[2] = biological target: GFP-ALP2 (35S::GFP-ALP2) (Arabidopsis thaliana) (UniProt F4KH55); experiment: affinity purification with mass spectrometry; IP of GFP-tagged bait from inflorescence extracts with GFP-trap agarose beads; 10mM Tris pH 7.5, 150 mM NaCl, 0.5% Igepal, 1% Triton; three independent experiments; 35S::GFP as control
[3] = biological target: T1, ALP1-GFP (pALP1::ALP1-GFP) (Arabidopsis thaliana) (UniProt Q94K49); experiment: as above
T1 sequence: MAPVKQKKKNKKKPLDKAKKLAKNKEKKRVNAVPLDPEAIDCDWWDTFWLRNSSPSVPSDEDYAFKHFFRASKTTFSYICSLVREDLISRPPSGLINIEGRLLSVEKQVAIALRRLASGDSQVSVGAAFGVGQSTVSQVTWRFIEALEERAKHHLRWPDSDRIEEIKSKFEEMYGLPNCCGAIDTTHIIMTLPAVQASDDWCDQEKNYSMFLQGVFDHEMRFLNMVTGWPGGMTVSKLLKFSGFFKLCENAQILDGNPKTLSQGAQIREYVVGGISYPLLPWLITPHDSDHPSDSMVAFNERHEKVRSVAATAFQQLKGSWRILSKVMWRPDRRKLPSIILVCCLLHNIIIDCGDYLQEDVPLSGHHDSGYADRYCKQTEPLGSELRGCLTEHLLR

Measured: binding

B1: VRN5 (endogenous) (protein, UniProt Q9LHF5 1-602)
chain: MDSSSTKSKISHSRKTNKKSNKKHESNGKQQQQQDVDGGGGCLRSSWICKNASCRANVPKEDSFCKRCSCCVCHNFDENKDPSLWLVCEPEKSDDVEFCGLSCHIECAFREVKVGVIALGNLMKLDGCFCCYSCGKVSQILGCWKKQLVAAKEARRRDGLCYRIDLGYRLLNGTSRFSELHEIVRAAKSMLEDEVGPLDGPTARTDRGIVSRLPVAANVQELCTSAIKKAGELSANAGRDLVPAACRFHFEDIAPKQVTLRLIELPSAVEYDVKGYKLWYFKKGEMPEDDLFVDCSRTERRMVISDLEPCTEYTFRVVSYTEAGIFGHSNAMCFTKSVEILKPVDGKEKRTIDLVGNAQPSDREEKSSISSRFQIGQLGKYVQLAEAQEEGLLEAFYNVDTEKICEPPEEELPPRRPHGFDLNVVSVPDLNEEFTPPDSSGGEDNGVPLNSLAEADGGDHDDNCDDAVSNGRRKNNNDCLVISDGSGDDTGFDFLMTRKRKAISDSNDSENHECDSSSIDDTLEKCVKVIRWLEREGHIKTTFRVRFLTWFSMSSTAQEQSVVSTFVQTLEDDPGSLAGQLVDAFTDVVSTKRPNNGVMTSH
no binding: [1] | [2] | [3]

B2: VEL1 (endogenous) (protein, UniProt Q9SUM4 1-714)
chain: MDSSLDGAAGDSSKCSEMSVDEKRQLVYELSKQSHLAAEVLQAWSRQEILQILCAEMGKERKYTGLTKVKIIETLLKIVSEKNSGECEGKKRDSDCLPIQRNTKRQRKVDNPSRYVIPATNIVTSNNASGSCSSVNTKGESTTIYCKNLACRAVLRQEDSFCRRCSCCICRKYDDNKDPSLWLTCSSDPPFEGESCGFSCHLECAFNTEKSGLGKDKQSEGCCFYCVSCGKANSLLECWKKQLTIAKETRRVEVLCYRLFLVQKLLKSSTKYRNLCEVVDEAVKTLEADVGPLTGLPMKMGRGIVNRLHSGPDVQKLCSSALESLETIATTPPDVAALPSPRSSKMQQDCSYVLSNEISADTATTGSTKIRFEDVNATSLTVVLASNEIPSPPNIVHYSIWHRKVPEKDYPEKSTCTLFIPNTRFVVSGLAPASEYCFKVVSYSGTREMGVDEINVLTRSAEEGANCSSAVERSVSPLTNCSTLSSNPSSVEAESNNDYIVPKKPSSKNEDNNSPSVDESAAKRMKRTTDSDIVQIEKDVEQIVLLDDEEQEAVLDKTESETPVVVTTKSLVGNRNSSDASLPITPFRSDEIKNRQARIEISMKDNCNNGDHSANGGTESGLEHCVKIIRQLECSGHIDKNFRQKFLTWYSLRATSQEIRVVKIFIDTFIDDPMALAEQLIDTFDDRVSIKRSAVGGSGASAVVPSGFCMKLWH
no binding: [1] | [2] | [3]

No constants are given. Whether binding was seen depends on the method and setting. Binding seen in cells or lysates may run through a third protein. Here binding means that the protein was enriched with, or labelled near, the bait; the list need not be complete. No binding means not detected with the bait. For part of these data: Tags and fused reporters may be left off the sequences shown.
